Measurements published in article PMC6712044.
These are yes or no findings as the source states them, for the method shown. Binding seen in cells or lysates may run through a third protein. A yes stands for co-enrichment or nearness to the bait. Other partners may have been found.

Sequences of proteins named here, by UniProt entry; tags and fusion partners are left off.
UniProt Q14145: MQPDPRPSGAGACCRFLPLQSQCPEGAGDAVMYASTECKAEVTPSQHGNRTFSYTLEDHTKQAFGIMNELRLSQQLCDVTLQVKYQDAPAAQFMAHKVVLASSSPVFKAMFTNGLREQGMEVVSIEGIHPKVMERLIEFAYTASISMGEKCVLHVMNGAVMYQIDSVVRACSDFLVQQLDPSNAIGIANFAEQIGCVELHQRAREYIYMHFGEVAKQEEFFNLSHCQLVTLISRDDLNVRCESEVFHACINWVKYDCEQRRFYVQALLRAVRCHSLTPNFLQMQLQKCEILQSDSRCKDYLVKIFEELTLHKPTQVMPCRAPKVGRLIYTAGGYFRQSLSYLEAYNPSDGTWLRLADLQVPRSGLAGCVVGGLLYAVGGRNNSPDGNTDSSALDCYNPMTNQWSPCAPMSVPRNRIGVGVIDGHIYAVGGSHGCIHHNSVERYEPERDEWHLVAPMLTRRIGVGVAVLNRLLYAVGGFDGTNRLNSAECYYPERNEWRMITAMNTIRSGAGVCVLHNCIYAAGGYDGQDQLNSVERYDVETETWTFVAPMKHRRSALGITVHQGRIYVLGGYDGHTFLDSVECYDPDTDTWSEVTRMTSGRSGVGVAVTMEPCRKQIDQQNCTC

Molecular target: endogenous KEAP1 (human (endogenous in H1299)) (UniProt Q14145)
Test: affinity purification with mass spectrometry; H1299 lysate (25 mM Tris-HCl, 150 mM NaCl, 1 mM EDTA, 1% NP-40), IP overnight at 4 °C with anti-KEAP1 antibody or normal rabbit IgG, protein G sepharose; gel lanes analysed by mass spectrometry; one round of discovery

B1: endogenous PIDD (protein, UniProt Q9HB75 1-910)
chain: MAATVEGPELEAAAAAGDASEDSDAGSRALPFLGGNRLSLDLYPGGCQQLLHLCVQQPLQLLQVEFLRLSTHEDPQLLEATLAQLPQSLSCLRSLVLKGGQRRDTLGACLRGALTNLPAGLSGLAHLAHLDLSFNSLETLPACVLQMRGLGALLLSHNCLSELPEALGALPALTFLTVTHNRLQTLPPALGALSTLQRLDLSQNLLDTLPPEIGGLGSLLELNLASNRLQSLPASLAGLRSLRLLVLHSNLLASVPADLARLPLLTRLDLRDNQLRDLPPELLDAPFVRLQGNPLGEASPDAPSSPVAALIPEMPRLFLTSDLDSFPVTPQGCSVTLACGVRLQFPAGATATPITIRYRLLLPEPGLVPLGPHDALLSHVLELQPHGVAFQQDVGLWLLFTPPQARRCREVVVRTRNDNSWGDLETYLEEEAPQRLWAHCQVPHFSWFLVVSRPVSNACLVPPEGTLLCSSGHPGVKVIFPPGATEEPRRVSMQVVRMAGRELQALLGEPEAAVSPLLCLSQSGPPSFLQPVTVQLPLPSGITGLSLDRSRLHLLYWAPPAATWDDITAQVVLELTHLYARFQVTHFSWYWLWYTTKNCVGGLARKAWERLRLHRVNLIALQRRRDPEQVLLQCLPRNKVDATLRRLLERYRGPEPSDTVEMFEGEEFFAAFERGIDVDADRPDCVEGRICFVFYSHLKNVKEVYVTTTLDREAQAVRGQVSFYRGAVPVRVPEEAEAARQRKGADALWMATLPIKLPRLRGSEGPRRGAGLSLAPLNLGDAETGFLTQSNLLSVAGRLGLDWPAVALHLGVSYREVQRIRHEFRDDLDEQIRHMLFSWAERQAGQPGAVGLLVQALEQSDRQDVAEEVRAVLELGRRKYQDSIRRMGLAPKDPALPGSSAPQPPEPAQA
**Q.** For B1, which binding is on record?
**A.** binds
